{
  "source": "the supplement of paper PMC5949888",
  "note": "Most values lie at the floor of the assay. Slopes are relative: functional sequences can read slightly below zero.",
  "data": [
    {"tested_on": "Saccharomyces cerevisiae PS128 hsf1 delta, HSF1(1-493) fusion", "assay": "growth estimate (transactivation domain function in HSF1 fusion, heat-shock survival) (a.u. (slope of normalised read count over time)); higher = stronger growth at 37°C, i.e. more transactivation activity", "details": "library: random library", "experimental": "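Random 60-nt DNA library encoding peptides of up to 20 aa, fused to the C-terminus of yeast HSF1 residues 1-493 (C-terminal TAD deleted) and expressed from the native HSF1 promoter on a CEN plasmid in hsf1-deleted S. cerevisiae PS128. Cells were selected at 37°C on -trp 5-FOA plates for 0, 2, 4, 6 and 8 days and amplicons were sequenced. Growth estimate is the slope of a robust linear fit of total-sum-normalised read counts (normalised to the first time point) over time, using at least 2 replicates. Sequences are classed functional (TAD activity) above a threshold of -0.13, set from stop-codon control sequences.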", "values": [
      {"substance": "NVSSGQRESVVAGTGIACIS", "growth estimate": "< -0.25"},
      {"substance": "RVSTGTV", "growth estimate": "< -0.25"},
      {"substance": "LIHHVSARRFIGCDK", "growth estimate": "< -0.25"},
      {"substance": "PTLLTI", "growth estimate": "< -0.25"},
      {"substance": "PNPHVKAALIVLLALGHFSR", "growth estimate": "< -0.25"},
      {"substance": "TESAIRL", "growth estimate": "< -0.25"},
      {"substance": "SGKRDARTRQVTTHRFSRAC", "growth estimate": "< -0.25"},
      {"substance": "QGAGGAHNQSLLYCTCIIPP", "growth estimate": "< -0.25"},
      {"substance": "EVGLCVVTCWRAHLLAGICS", "growth estimate": "< -0.25"},
      {"substance": "NGINNSGWIVPEGPIDMFCA", "growth estimate": "< -0.25"},
      {"substance": "NMSTLRSAQGMKGSGLVSTQ", "growth estimate": "< -0.25"},
      {"substance": "WLRRRCHTHKGNE", "growth estimate": "< -0.25"},
      {"substance": "GPPQRTARCVSRKDSAETWG", "growth estimate": "< -0.25"},
      {"substance": "SSTKVRCHDAFSGQLP", "growth estimate": "< -0.25"},
      {"substance": "REKL", "growth estimate": "< -0.25"},
      {"substance": "RLKRKDCKPGTEVVELSTLT", "growth estimate": "< -0.25"},
      {"substance": "PENLLDQVRLLSCSLSEDLE", "growth estimate": "< -0.25"},
      {"substance": "GNIQRYWLNLKVIMSWLVR", "growth estimate": "< -0.25"},
      {"substance": "SYTLI", "growth estimate": "< -0.25"},
      {"substance": "PYPRCT", "growth estimate": "< -0.25"},
      {"substance": "SDRGSGEIFHVRQREVCRKD", "growth estimate": "< -0.25"},
      {"substance": "SESSRI", "growth estimate": "< -0.25"},
      {"substance": "TYLCGTKISESKDGVHASPH", "growth estimate": "< -0.25"},
      {"substance": "LYAMGRA", "growth estimate": "< -0.25"},
      {"substance": "GGRAEALCA", "growth estimate": "< -0.25"},
      {"substance": "SQSLLGRGHRGIS", "growth estimate": "< -0.25"},
      {"substance": "AHSEEAPGAAHGYKVHGIRH", "growth estimate": "< -0.25"},
      {"substance": "TSGFNVRLCSSLADNRLPSR", "growth estimate": "< -0.25"},
      {"substance": "AVLGLPRARCLPPLSES", "growth estimate": "< -0.25"},
      {"substance": "QKPAYSPQNMASFADRVGVG", "growth estimate": "< -0.25"},
      {"substance": "FDSSSSFMCVCHRVILRQHP", "growth estimate": "< -0.25"},
      {"substance": "HICSDGVKWGQPCGSSGPPW", "growth estimate": "< -0.25"},
      {"substance": "WHYV", "growth estimate": "< -0.25"},
      {"substance": "DKGHRKRNGAEQMPNYDHR", "growth estimate": "< -0.25"},
      {"substance": "VTMDLQSFTGVSRFVGVSVP", "growth estimate": "< -0.25"},
      {"substance": "SIPSLDCWSCQT", "growth estimate": "< -0.25"},
      {"substance": "SVLKCTLCTVLNLTKNSFDI", "growth estimate": "< -0.25"},
      {"substance": "KASYNGQRSRPWVQSLYFMV", "growth estimate": "< -0.25"},
      {"substance": "LRPKFITPSLKGVLTLCLRG", "growth estimate": "< -0.25"},
      {"substance": "DPLRVMKTVSLRCANPVIGI", "growth estimate": "< -0.25"},
      {"substance": "ERRFTHFARLGPLRLSAARG", "growth estimate": "< -0.25"},
      {"substance": "TTVRARTTTDYYATVPFAS", "growth estimate": "< -0.25"},
      {"substance": "WLPVNDVALGNQA", "growth estimate": "< -0.25"},
      {"substance": "VFGCHTIGGTSG", "growth estimate": "< -0.25"},
      {"substance": "FEGQEIRVMI", "growth estimate": "< -0.25"},
      {"substance": "LNKELQ", "growth estimate": -0.24},
      {"substance": "HTIT", "growth estimate": "< -0.25"},
      {"substance": "SYLRRALTDRCCAQ", "growth estimate": "< -0.25"},
      {"substance": "GLQLAQPERLYGEASGKGVL", "growth estimate": "< -0.25"},
      {"substance": "IGDVSRPWPYSRVRACKRRC", "growth estimate": "< -0.25"},
      {"substance": "LGLGCKHNVAIRWSHGLAST", "growth estimate": "< -0.25"},
      {"substance": "NEAVPLIPLNCILGI", "growth estimate": "< -0.25"},
      {"substance": "VSPGLSKEKQ", "growth estimate": -0.245},
      {"substance": "EDLLAHDIRSVKGTRLGSKC", "growth estimate": "< -0.25"},
      {"substance": "IPVLRLARKRL", "growth estimate": "< -0.25"},
      {"substance": "LVPVFARLQLKSLVLVVRPN", "growth estimate": "< -0.25"},
      {"substance": "FCIATR", "growth estimate": "< -0.25"},
      {"substance": "DVGLPGMKR", "growth estimate": "< -0.25"},
      {"substance": "VTSEI", "growth estimate": "< -0.25"},
      {"substance": "RRHPI", "growth estimate": "< -0.25"},
      {"substance": "TENSHLWGDSLWGH", "growth estimate": 0.365},
      {"substance": "LNGRTKLSIRNGPNQLRRDI", "growth estimate": "< -0.25"},
      {"substance": "SEIFMLWGATFVATWGSTIG", "growth estimate": "< -0.25"},
      {"substance": "RSLSLTMASYCTTGPIR", "growth estimate": "< -0.25"},
      {"substance": "EERIRPSTVVGRIYETL", "growth estimate": "< -0.25"},
      {"substance": "RGSRSY", "growth estimate": "< -0.25"},
      {"substance": "LGVSKTLGLYILYWDQ", "growth estimate": "< -0.25"},
      {"substance": "STGVLPD", "growth estimate": "< -0.25"},
      {"substance": "IRYLDSGRAVALKAAWAWVR", "growth estimate": "< -0.25"},
      {"substance": "LSLTWN", "growth estimate": "< -0.25"},
      {"substance": "APGHAIRDSLYVDLLAKSDN", "growth estimate": "< -0.25"},
      {"substance": "RDMTIGSEFDYPCRLVNVVW", "growth estimate": "< -0.25"},
      {"substance": "VQKYQARVIRRRPVHLQEGQ", "growth estimate": "< -0.25"},
      {"substance": "LLWSIRSCLGAPSVELALSR", "growth estimate": "< -0.25"},
      {"substance": "VSLWTRGFANASRLG", "growth estimate": "< -0.25"},
      {"substance": "YHKSNPDRHPY", "growth estimate": "< -0.25"},
      {"substance": "HGCSITGGAMYLKVPACGSR", "growth estimate": "< -0.25"},
      {"substance": "SNTRAILSTVRDYLRQRSSF", "growth estimate": "< -0.25"},
      {"substance": "IHCRRVRWFRSIGSSV", "growth estimate": "< -0.25"},
      {"substance": "FTLGTELLEQLRR", "growth estimate": "< -0.25"},
      {"substance": "FLSVIFNKRTRNLFPIMDSI", "growth estimate": -0.245},
      {"substance": "GNAGLYNKREYHARMLIPAA", "growth estimate": "< -0.25"},
      {"substance": "PGLHSMDLVARNYGFRATAD", "growth estimate": "< -0.25"},
      {"substance": "EEKTEMTYGIGGTARIPKCG", "growth estimate": "< -0.25"},
      {"substance": "PIPPIRES", "growth estimate": "< -0.25"},
      {"substance": "DKQ", "growth estimate": "< -0.25"},
      {"substance": "PRMSFRPYLGA", "growth estimate": "< -0.25"},
      {"substance": "ITSDLSGSYGDKLIA", "growth estimate": -0.201},
      {"substance": "SRTPRVVIRGMRRMDLRCLN", "growth estimate": "< -0.25"},
      {"substance": "SWSIAIATTVDSRRTG", "growth estimate": "< -0.25"},
      {"substance": "KWLFL", "growth estimate": "< -0.25"},
      {"substance": "SVGQ", "growth estimate": "< -0.25"},
      {"substance": "DFQQSCCDGARIWPYGLSHP", "growth estimate": "< -0.25"},
      {"substance": "PTGSTYTR", "growth estimate": "< -0.25"}
    ]}
  ]
}
